Measurements from patent US20200017490A1, “Novel Mesoionic Insecticidal Compound” (Nippon Kayaku Kabushiki Kaisha, priority 2016, published 2020).
Where a name gives a salt, the structure may show the parent alone. Some entries share one result that the patent states for a list of compounds.

Experiments:
Format in all cases: in vivo
[1] = tested on: Diamondback Moth (Plutella xylostella); conditions: 200 ppm, cabbage leaf dipping, third instar larvae, 5 days after the treatment, 25° C.
Experimental: Biological Test Example 2: Test (Foliage Dipping) for Controlling Diamondback Moth (Plutella xylostella)
A cabbage leaf cut to a diameter of 5.0 cm was dipped in the diluent of the test compounds diluted with water to 200 ppm in an amount of 20 mL and air-dried. After air-drying, the cabbage leaf was placed in a plastic cup, and 10 larvae of diamondback moths in the third instar larva were released there. The cup was covered with a lid and kept in a chamber at a constant temperature of 25° C. for rearing.

[2] = tested on: Brown Planthopper (Nilaparvata lugens); conditions: 200 ppm, rice seedling foliage dipping, third instar larvae, 5 days after the treatment, 25° C.
Experimental: Biological Test Example 3: Test (Foliage Dipping) for Controlling Brown Planthopper (Nilaparvata lugens)
Ten sampled rice seedlings were dipped in the chemical solution of the test compounds diluted with water to 200 ppm in an amount of 20 mL and air-dried. After air-drying, the rice seedlings held with urethane in a glass cylinder having an inner diameter of 4.5 cm and a length of 14 cm were set up in a plastic cup containing 40 mL of water. Larvae of brown planthoppers in the third instar larva were released in the glass cylinder. The cylinder was covered with a lid of medicine paper and kept in a chamber at a constant temperature of 25° C. for rearing.

[3] = tested on: Cotton Aphid (Aphis gossypii); conditions: 200 ppm, foliar spraying on cucumber leaf, cotton aphid offspring, 5 days after the treatment, 25° C.
Experimental: Biological Test Example 1: Test (Foliar Spraying) for Controlling Cotton Aphid (Aphis gossypii)
A cucumber leaf cut to a diameter of 3.5 cm was placed on cotton wool moistened with water. Two adult cotton aphids were released there for offspring for 24 hours and the adult insects were then removed. The diluent of the test compounds diluted with water to 200 ppm in an amount of 2 mL was sprayed onto the cucumber leaves with a spray tower. After air-drying, the sample with cotton wool was placed in a plastic cup, which was covered with a lid and kept in a chamber at a constant temperature of 25° C. for rearing.

Row | Structure (SMILES) | mortality [1] | mortality [2] | mortality [3]
1 | CSCON=CCC[n+]1c([O-])c(-c2cc(Cl)cc(Cl)c2)c(=O)n2ccccc21 (mixture of isomers) [Compound A-23] | ≥ 80% | ≥ 80% | 
2 | CCOC(C)ON=CCC[n+]1c([O-])c(-c2cccc(C)c2)c(=O)n2ccccc21 (mixture of isomers) [Compound A-30] |  | ≥ 80% | ≥ 80%
3 | O=c1c(-c2cccc(C(F)(F)F)c2)c([O-])[n+](CCC=NOCc2ccccc2)c2ccccn12 (mixture of isomers) [Compound B-1] |  | ≥ 80% | ≥ 80%
4 | O=c1c(-c2cccc(C(F)(F)F)c2)c([O-])[n+](CCC=NOCc2ccccc2Cl)c2ccccn12 (mixture of isomers) [Compound B-2] |  | ≥ 80% | ≥ 80%
5 | O=c1c(-c2cccc(C(F)(F)F)c2)c([O-])[n+](CCC=NOCc2ccccc2I)c2ccccn12 (mixture of isomers) [Compound B-4] |  | ≥ 80% | ≥ 80%
6 | O=c1c(-c2cccc(C(F)(F)F)c2)c([O-])[n+](CCC=NOCc2ccc([N+](=O)[O-])cc2)c2ccccn12 (mixture of isomers) [Compound B-5] |  | ≥ 80% | ≥ 80%
7 | CC(ON=CCC[n+]1c([O-])c(-c2cccc(C(F)(F)F)c2)c(=O)n2ccccc21)c1ccccc1 (mixture of isomers) [Compound B-7] | ≥ 80% | ≥ 80% | 
8 | O=c1c(-c2cccc(C(F)(F)F)c2)c([O-])[n+](CCC=NOc2ccccc2F)c2ccccn12 (mixture of isomers) [Compound C-2] |  | ≥ 80% | ≥ 80%
9 | COc1cccc(-c2c([O-])[n+](CCC=NOc3cccc(C(F)(F)F)c3)c3ccccn3c2=O)c1 (mixture of isomers) [Compound C-13] |  | ≥ 80% | ≥ 80%
10 | C=CCON=CCC[n+]1c([O-])c(-c2cccc(C(F)(F)F)c2)c(=O)n2ccccc21 (mixture of isomers) [Compound E-1] |  | ≥ 80% | ≥ 80%
11 | O=c1c(-c2cccc(C(F)(F)F)c2)c([O-])[n+](CCC=NOCC=CCl)c2ccccn12 (mixture of isomers) [Compound E-5] |  | ≥ 80% | ≥ 80%
12 | O=c1c(-c2cccc(C(F)(F)F)c2)c([O-])[n+](CCC=NOCC=CCl)c2ccccn12 (mixture of isomers) [Compound E-6] | ≥ 80% |  | 
13 | O=c1c(-c2cccc(OC(F)(F)F)c2)c([O-])[n+](CCC=NOCC=CCl)c2ccccn12 (mixture of isomers) [Compound E-15] |  | ≥ 80% | ≥ 80%
14 | CC=CCON=CCC[n+]1c([O-])c(-c2cc(Cl)cc(Cl)c2)c(=O)n2ccccc21 (mixture of isomers) [Compound E-26] | ≥ 80% | ≥ 80% | 
15 | O=c1c(-c2ccccc2)c([O-])[n+](CCC=NOCC=CCl)c2ccccn12 (mixture of isomers) [Compound E-27] |  | ≥ 80% | ≥ 80%
16 | C=C(Cl)CON=CCC[n+]1c([O-])c(-c2cccc(OC(F)(F)F)c2)c(=O)n2ccccc21 [Compound E-3] |  | ≥ 80% | ≥ 80%
17 | C=C(Br)CON=CCC[n+]1c([O-])c(-c2cccc(C(F)(F)F)c2)c(=O)n2ccccc21 [Compound E-4] |  | ≥ 80% | ≥ 80%
18 | CC(C)=CCON=CCC[n+]1c([O-])c(-c2cccc(C(F)(F)F)c2)c(=O)n2ccccc21 [Compound E-7, 1-(3-(((3-methyl-2-butenyl)oxy)imino)propyl)-4-oxo-3-(3-(trifluoromethyl)phenyl)-4H-pyrido[1,2-a]pyrimidinium Inner Salt] |  | ≥ 80% | ≥ 80%
19 | CC(C)=CCON=CCC[n+]1c([O-])c(-c2cc(C)cc(C)c2)c(=O)n2ccccc21 [Compound E-18] |  | ≥ 80% | ≥ 80%

Row | Structure (SMILES) | mortality [1] | mortality [2] | mortality [3]
20 | CC(C)=CCON=CCC[n+]1c([O-])c(-c2ccccc2)c(=O)n2ccccc21 [Compound E-21] |  | ≥ 80% | ≥ 80%
21 | CC(C)=CCON=CCC[n+]1c([O-])c(-c2cccc(Cl)c2)c(=O)n2ccccc21 [Compound E-22] |  | ≥ 80% | ≥ 80%
22 | O=c1c(-c2cccc(C(F)(F)F)c2)c([O-])[n+](CCC=NO)c2ccccn12 [Compound F-1, 1-(3-(hydroxyimino)propyl)-4-oxo-3-(3-(trifluoromethyl)phenyl)-4H-pyrido[1,2-a]pyrimidinium Inner Salt] |  | ≥ 80% | ≥ 80%
23 | CON=CCC[n+]1c([O-])c(-c2cccc(C(F)(F)F)c2)c(=O)n2cccc(C)c21 [Compound F-4] | ≥ 80% |  | 
24 | CON=CCC[n+]1c([O-])c(-c2cccc(OC)c2)c(=O)n2ccccc21 [Compound F-6] |  | ≥ 80% | ≥ 80%
25 | NC(CC[n+]1c([O-])c(-c2cccc(C(F)(F)F)c2)c(=O)n2ccccc21)=NO [Compound F-13] |  | ≥ 80% | ≥ 80%
26 | CC(C)(C)C(=O)ON=C(N)CC[n+]1c([O-])c(-c2cccc(C(F)(F)F)c2)c(=O)n2ccccc21 [Compound F-14] |  | ≥ 80% | ≥ 80%
27 | O=c1c(-c2ccccc2)c([O-])[n+](CCC=NO)c2ccccn12 [Compound F-15] |  | ≥ 80% | ≥ 80%
28 | Cc1cccc(-c2c([O-])[n+](CCC=NO)c3ccccn3c2=O)c1 [Compound F-16] |  | ≥ 80% | ≥ 80%
29 | O=c1c(-c2cccc(Cl)c2)c([O-])[n+](CCC=NO)c2ccccn12 [Compound F-27] |  | ≥ 80% | ≥ 80%
30 | O=c1c(-c2cc(F)cc(F)c2)c([O-])[n+](CCC=NO)c2ccccn12 [Compound F-28] |  | ≥ 80% | ≥ 80%
31 | COc1cccc(-c2c([O-])[n+](CCC=NO)c3ccccn3c2=O)c1 [Compound F-29] |  | ≥ 80% | ≥ 80%
32 | O=c1c(-c2cccc(C(F)(F)F)c2)c([O-])[n+](CCC=NOC2CCCO2)c2ccccn12 (centres unmarked) [Compound G-2] |  | ≥ 80% | ≥ 80%
33 | O=c1c(-c2cccc(OC(F)(F)F)c2)c([O-])[n+](CCC=NOC2CCCO2)c2ccccn12 (centres unmarked) [Compound G-5] |  | ≥ 80% | ≥ 80%
34 | Cc1cccc(-c2c([O-])[n+](CCC=NOC3CCCO3)c3ccccn3c2=O)c1 (centres unmarked) [Compound G-6] |  | ≥ 80% | ≥ 80%
35 | O=c1c(-c2cccc(C(F)(F)F)c2)c([O-])[n+](CCCC=NOC2CCCO2)c2ccccn12 (centres unmarked) [Compound G-12] |  | ≥ 80% | ≥ 80%
36 | CON=CC[n+]1c([O-])c(-c2cccc(C(F)(F)F)c2)c(=O)n2ccccc21 [Compound I-2] |  | ≥ 80% | ≥ 80%
37 | COCON=CC[n+]1c([O-])c(-c2cc(Cl)cc(Cl)c2)c(=O)n2cccc(C)c21 [Compound I-18] | ≥ 80% |  | 
